Results deposited as PubChem BioAssay AID1224827 (NIAID, 2016)

- Purpose: 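Retest primary hits on a TNF reporter with six siRNAs per gene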 (follow-up of hits)
- System: RAW264.7 G9 mouse macrophage reporter clone
- Reagents: single siRNA against mouse genes, 100 nM siRNA
- Duration: siRNA for 2 days, then LPS about 16 h
- Conditions: bacterial lipopolysaccharide (LPS), 10 ng/ml, cells fixed after overnight (about 16 h) stimulation
- Measured: 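Imaged nuclear TNF reporter intensity, background removed, scaled per plate and to non-targeting control wells, as z-scores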
- Reading the numbers: TNF reporter z-score, mean: higher = stronger Tnf promoter reporter signal
- Active means: 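An siRNA is called active when its mean z-score over replicates is at least +2 or at most -2; control wells get no call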
The deposit covers about 3,800 reagents; this is an unselected part. In the full data, about 2,200 (57%) got an active call. 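Active means a strong reporter change in either direction; calls are per siRNA, not per gene; qiagen siRNAs gave weaker effects.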 The numbers tell different reagents against one gene apart. Further read-outs or replicates are left out here.

TNF reporter z-score, mean, by gene knocked down and reagent
Brpf1: #1 4.92 active; #2 -1.99 inactive; #3 -4.89 active; #4 -0.131 inactive; #5 -2.42 active; #6 -3.39 active
Optn: #1 3.15 active; #2 0.953 inactive; #3 -1.56 inactive; #4 1.45 inactive; #5 0.445 inactive; #6 -0.827 inactive
Ctcf: #1 -0.357 inactive; #2 -0.996 inactive; #3 -4.52 active; #4 1.04 inactive; #5 0.377 inactive; #6 -3.6 active
Fbh1: #1 -2.86 active; #2 -3.4 active; #3 -4.59 active; #4 2.64 active; #5 1.4 inactive; #6 0.507 inactive
Cacna2d1: #1 -0.752 inactive; #2 -3.42 active; #3 -4.68 active; #4 4.13 active; #5 2.65 active; #6 0.634 inactive

Laid out differently: results already given
Optn #1
- TNF reporter z-score, mean: 3.15
- Outcome: active

Optn #2
- TNF reporter z-score, mean: 0.953
- Outcome: inactive

Optn #3
- TNF reporter z-score, mean: -1.56
- Outcome: inactive

Optn #4
- TNF reporter z-score, mean: 1.45
- Outcome: inactive

Optn #5
- TNF reporter z-score, mean: 0.445
- Outcome: inactive

Optn #6
- TNF reporter z-score, mean: -0.827
- Outcome: inactive

Ctcf #1
- TNF reporter z-score, mean: -0.357
- Outcome: inactive

The list goes on.
TNF reporter z-score, mean, by gene knocked down and reagent
Itpkb: #1 4.8 active; #2 -0.796 inactive; #3 -4.32 active
Mrps23: #1 0.758 inactive; #2 -0.687 inactive; #3 -4.69 active; #4 1.92 inactive; #5 -1.45 inactive; #6 -1.75 inactive
Rpl13a: #1 0.392 inactive; #2 -2 inactive; #3 -2.86 active; #4 -1.74 inactive; #5 -2.54 active; #6 -2.52 active
Psmb4: #1 2.17 active; #2 -1.34 inactive; #3 -5.48 active; #4 6.54 active; #5 5.12 active; #6 -0.241 inactive
Slc9a8: #1 1.74 inactive; #2 -1.91 inactive; #3 -3.76 active; #4 2.78 active; #5 2.79 active; #6 -0.268 inactive
